Source: PubChem BioAssay AID686937 (Drosophila RNAi Screening Center, 2013)

Purpose: 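Genes in the fly needed for secretion of protein constitutively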 (primary screen)
Cells: Drosophila S2 cells expressing secreted horseradish peroxidase
Reagents: long dsRNA against Drosophila genes
Timing: about 5.5 days (5 days dsRNA, then 12 h reporter induction)
Conditions: reporter expression induced after 5 days of dsRNA, read 12 h later; inducer not stated
Read-out: 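Chemiluminescent measurement of peroxidase in the medium 12 h after reporter induction, following 5 days of dsRNA, given as a z-score per plate; higher means more secretion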
Direction: z-score: higher = more reporter secreted into medium
The deposit covers about 23,000 reagents; shown is a random part of those with a known target gene and a result. 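Reduced-secretion tags in replicate 1 do not always agree with the z-scores; no criterion for assigning the tags was given.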 A plus sign joins genes that one reagent is predicted to hit. No sequences are given here. The record does not give: the amount of reagent.

target gene	amplicon	z-score, replicate 1	z-score, replicate 2
Nepl20 (Neprilysin-like 20)	DRSC14878	0.12	0.27
Jheh1 (Juvenile hormone epoxide hydrolase 1)	DRSC06529	0.47	0.35
dpr13 (defective proboscis extension response 13)	DRSC06160	0.09	0.27
dpr13 (defective proboscis extension response 13)	DRSC06464	0.62	0.5
nAChRalpha7 (nicotinic Acetylcholine Receptor alpha7)	DRSC20078	0.69	0.27
nAChRalpha7 (nicotinic Acetylcholine Receptor alpha7)	DRSC20081	0.42	0.22
CG13884	DRSC08354	0.21	0.11
Obp83a (Odorant-binding protein 83a)	DRSC12362	0.2	-0.79
CG7557	DRSC10878	0.21	0.33
Tl (Toll)	DRSC16885	0.35	0.47
Amt (Ammonium transporter)	DRSC16055	0.28	0.24
CG13931	DRSC08400	0.42	0.34
CG17944	DRSC12572	0	0.01
CG16964	DRSC02546	0.76	0.16
CG10799	DRSC06002	0.23	0.01
CG9213	DRSC20170	0.32	0.41
rhea	DRSC11300	0.19	0.17
CG30391	DRSC21572	-0.36	1.2
PGAP1 (Post-GPI attachment to proteins 1)	DRSC18286	0.15	0.11
viaf (viral IAP-associated factor)	DRSC10326	-0.09	-0.04
Ir52b (Ionotropic receptor 52b)	DRSC06263	0.55	0.08
CG32267	DRSC21561	0.2	-0.79
Ste:CG33238 + Ste:CG33241 + Ste:CG33236 + 11 more	DRSC19004	0.23	1.66
Ste:CG33238 + Ste:CG33241 + Ste:CG33236 + 11 more	DRSC21260	0.56	0.09
CG6294 + CG6299	DRSC19980	0.44	0.33
Art7 (Arginine methyltransferase 7)	DRSC04588	0.43	0.41
Dic4	DRSC10317	0.37	-0.39
CG15498	DRSC15040	0.51	0.53
Ptp52F (Protein tyrosine phosphatase 52F)	DRSC06717	0.12	0.16
inaD (inactivation no afterpotential D)	DRSC04694	0.23	0.26
prd (paired)	DRSC03597	0.58	0.41
CG15739	DRSC19705	0.29	0.4
CG5535	DRSC10514	0.38	0.33
CG31709	DRSC01081	0.27	0.42
Lsp1gamma (Larval serum protein 1 gamma)	DRSC08672	0.08	0.23
CG15771	DRSC18077	0.32	0.34
nonA-l (nonA-like)	DRSC17017	0.01	0.19
CG13442	DRSC06402	0.43	0.51
Galphaf (G protein alpha subunit f)	DRSC11171	0.15	0.32
Clamp (Chromatin-linked adaptor for MSL proteins)	DRSC03718	0.21	0.6
Clamp (Chromatin-linked adaptor for MSL proteins)	DRSC21682	-1.17	0.65
CG16985	DRSC08501	0.12	0.21
rho-7 (rhomboid-7)	DRSC07304	0.32	0.47
tnc (tenectin)	DRSC14647	0.29	0.26
CG43132 (retired record)	DRSC19484	0.2	0.52
sPLA2 (secretory Phospholipase A2)	DRSC06041	0.34	0.3
Desi (Desiccate)	DRSC14909	0.21	0.09
CG14005	DRSC02337	0.31	0.18
CG31278	DRSC16051	0.14	0.22
Arl1 (ADP ribosylation factor-like 1)	DRSC09667	0.28	0.22
Nulp1 (Nuclear localized protein 1)	DRSC09677	0.46	0.32
Charon	DRSC00679	0.26	0.21
Vm34Ca (Vitelline membrane 34Ca)	DRSC03475	-0.65	-0.48
ATPsyndelta (ATP synthase, delta subunit)	DRSC18248	0.17	-0.35
CG43439 + CG32388	DRSC08861	0.35	0.17
daed (daedalus)	DRSC00299	0.3	0.38

4 entries already listed, sorted by “z-score, replicate 1”, low to high.
target gene	amplicon	z-score, replicate 1	z-score, replicate 2
nonA-l (nonA-like)	DRSC17017	0.01	0.19
Lsp1gamma (Larval serum protein 1 gamma)	DRSC08672	0.08	0.23
CG31709	DRSC01081	0.27	0.42
CG15771	DRSC18077	0.32	0.34
